Data: US20140127225A1 (NEOTOPE BIOSCIENCES, published 2014)
Results are given in words; binding and its absence hold for the method and conditions named. Some entries that bind do so weakly or less than the wild type.

Sequences of proteins named here, by UniProt entry; tags and fusion partners are left off. A change or cut given only in a name is not applied to a line headed by its entry.
UniProt P01024: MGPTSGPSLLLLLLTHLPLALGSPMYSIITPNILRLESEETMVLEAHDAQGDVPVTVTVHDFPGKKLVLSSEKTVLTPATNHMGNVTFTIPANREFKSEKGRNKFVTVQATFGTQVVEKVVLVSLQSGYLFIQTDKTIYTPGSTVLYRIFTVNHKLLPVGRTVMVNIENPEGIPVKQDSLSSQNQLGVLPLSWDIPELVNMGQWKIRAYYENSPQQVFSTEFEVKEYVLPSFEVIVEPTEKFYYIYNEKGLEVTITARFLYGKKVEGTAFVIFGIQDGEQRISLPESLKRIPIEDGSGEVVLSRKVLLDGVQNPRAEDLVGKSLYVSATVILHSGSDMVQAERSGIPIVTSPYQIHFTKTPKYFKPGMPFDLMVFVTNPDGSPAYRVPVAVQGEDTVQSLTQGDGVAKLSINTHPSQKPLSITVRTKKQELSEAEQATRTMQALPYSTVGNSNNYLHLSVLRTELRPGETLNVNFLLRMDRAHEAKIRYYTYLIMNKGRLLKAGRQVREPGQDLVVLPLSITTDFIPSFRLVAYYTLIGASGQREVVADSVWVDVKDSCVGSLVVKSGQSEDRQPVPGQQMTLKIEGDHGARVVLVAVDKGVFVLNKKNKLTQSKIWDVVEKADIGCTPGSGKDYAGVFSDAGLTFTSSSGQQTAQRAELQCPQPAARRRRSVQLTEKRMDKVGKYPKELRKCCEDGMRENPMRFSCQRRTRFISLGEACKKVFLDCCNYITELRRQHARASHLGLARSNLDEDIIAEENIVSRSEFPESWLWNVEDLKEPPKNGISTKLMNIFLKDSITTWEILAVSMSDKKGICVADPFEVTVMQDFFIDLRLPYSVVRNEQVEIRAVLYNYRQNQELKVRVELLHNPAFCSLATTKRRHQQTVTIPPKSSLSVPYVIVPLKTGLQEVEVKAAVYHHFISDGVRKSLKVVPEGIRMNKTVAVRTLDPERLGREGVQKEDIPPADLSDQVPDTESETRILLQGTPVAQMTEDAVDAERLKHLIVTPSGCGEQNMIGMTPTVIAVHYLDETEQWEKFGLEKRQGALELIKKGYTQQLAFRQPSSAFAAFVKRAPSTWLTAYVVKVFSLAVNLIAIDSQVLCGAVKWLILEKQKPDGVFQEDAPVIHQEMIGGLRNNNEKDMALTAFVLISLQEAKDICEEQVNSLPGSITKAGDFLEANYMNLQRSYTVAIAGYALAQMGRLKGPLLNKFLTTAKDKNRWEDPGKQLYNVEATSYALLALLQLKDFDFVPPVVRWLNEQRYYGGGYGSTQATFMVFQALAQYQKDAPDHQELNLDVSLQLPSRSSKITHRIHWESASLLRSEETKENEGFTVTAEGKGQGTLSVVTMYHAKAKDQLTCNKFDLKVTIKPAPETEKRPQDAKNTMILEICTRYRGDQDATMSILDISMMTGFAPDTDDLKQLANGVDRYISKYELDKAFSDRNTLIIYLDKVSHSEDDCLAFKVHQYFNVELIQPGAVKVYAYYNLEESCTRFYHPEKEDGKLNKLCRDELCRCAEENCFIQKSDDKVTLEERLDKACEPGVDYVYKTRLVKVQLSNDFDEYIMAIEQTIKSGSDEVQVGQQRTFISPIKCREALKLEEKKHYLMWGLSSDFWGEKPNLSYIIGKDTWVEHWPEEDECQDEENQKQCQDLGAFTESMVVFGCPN

Target: human iC3b (purified; Complement Technology #A115) (human) (UniProt P01024)
Experiment: sandwich ELISA on C3, C3b or iC3b; one bar per antigen, y axis without a label

binding: binds
B1: mouse monoclonal antibody 2H8r (antibody, V domains shown)
VH: QIQLVQSGPELKKPGETVKISCKASGYTFTNYGMNWVKQAPGKGLKWMGWINTYTGEPTYADDFKGRFAFSLETSASTAYLQINNLKNEDMATYFCAKGGYPHYYSMDYWGQGTSVTVSS
VL: DIQMTQTTSSLSASLGDRVTISCRASQDISNYLNWYQQKPDGTVKLLIYYTSRLHSGVPSRFSGSGSGTDYSLTISNLEQEDIATYFCQQGKTLPRTFGGGTKLEIKR
notes: also called m2H8r
